Laboratory results from paper PMC8973879.
Results are given in words; binding and its absence hold for the method and conditions named. Binding seen in cells or lysates may run through a third protein. Some results given as binding are weak or reduced against the parent protein; the word gives no strength. Sequences can lack the tags named with a protein.

T1: HA-FOXM1 (UniProt Q08050)
T1 sequence: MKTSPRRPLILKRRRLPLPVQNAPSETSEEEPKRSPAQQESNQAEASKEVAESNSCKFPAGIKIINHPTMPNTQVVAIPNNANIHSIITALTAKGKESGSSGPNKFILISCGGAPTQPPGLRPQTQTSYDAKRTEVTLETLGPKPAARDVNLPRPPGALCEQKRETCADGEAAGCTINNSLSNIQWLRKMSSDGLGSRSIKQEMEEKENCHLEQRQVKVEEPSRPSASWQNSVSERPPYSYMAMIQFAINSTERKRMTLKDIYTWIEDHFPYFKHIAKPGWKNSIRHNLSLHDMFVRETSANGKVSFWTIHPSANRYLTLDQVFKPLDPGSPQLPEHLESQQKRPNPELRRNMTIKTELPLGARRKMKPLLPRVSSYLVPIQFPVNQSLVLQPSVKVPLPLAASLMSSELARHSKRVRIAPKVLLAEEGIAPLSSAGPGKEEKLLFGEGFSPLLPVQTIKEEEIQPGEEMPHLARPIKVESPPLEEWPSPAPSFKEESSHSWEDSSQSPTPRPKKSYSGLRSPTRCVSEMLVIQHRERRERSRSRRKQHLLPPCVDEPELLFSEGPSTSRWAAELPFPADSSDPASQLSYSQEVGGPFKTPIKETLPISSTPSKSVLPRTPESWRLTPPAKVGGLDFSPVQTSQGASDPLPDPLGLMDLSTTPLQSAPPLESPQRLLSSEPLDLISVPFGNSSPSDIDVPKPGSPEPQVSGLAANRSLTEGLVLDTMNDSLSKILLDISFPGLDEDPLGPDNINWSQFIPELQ

T2: Flag-STIL-C (a.a. 780-1288) (human) (UniProt Q15468)
T2 sequence: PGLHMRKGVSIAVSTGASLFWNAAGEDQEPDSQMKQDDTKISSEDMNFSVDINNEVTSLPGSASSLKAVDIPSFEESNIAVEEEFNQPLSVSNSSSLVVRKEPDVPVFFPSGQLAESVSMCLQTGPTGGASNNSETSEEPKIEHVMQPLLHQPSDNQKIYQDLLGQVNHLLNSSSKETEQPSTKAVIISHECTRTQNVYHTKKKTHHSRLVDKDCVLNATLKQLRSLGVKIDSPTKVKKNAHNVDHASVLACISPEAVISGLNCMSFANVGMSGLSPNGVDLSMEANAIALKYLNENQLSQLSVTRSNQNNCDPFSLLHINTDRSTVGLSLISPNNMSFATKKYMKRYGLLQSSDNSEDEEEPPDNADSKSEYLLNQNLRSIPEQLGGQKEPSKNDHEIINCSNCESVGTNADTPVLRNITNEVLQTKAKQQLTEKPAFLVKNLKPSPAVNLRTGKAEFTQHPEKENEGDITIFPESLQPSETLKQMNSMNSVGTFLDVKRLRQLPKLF

T3: Flag-STIL-N (a.a. 1-628) (human) (UniProt Q15468)
T3 sequence: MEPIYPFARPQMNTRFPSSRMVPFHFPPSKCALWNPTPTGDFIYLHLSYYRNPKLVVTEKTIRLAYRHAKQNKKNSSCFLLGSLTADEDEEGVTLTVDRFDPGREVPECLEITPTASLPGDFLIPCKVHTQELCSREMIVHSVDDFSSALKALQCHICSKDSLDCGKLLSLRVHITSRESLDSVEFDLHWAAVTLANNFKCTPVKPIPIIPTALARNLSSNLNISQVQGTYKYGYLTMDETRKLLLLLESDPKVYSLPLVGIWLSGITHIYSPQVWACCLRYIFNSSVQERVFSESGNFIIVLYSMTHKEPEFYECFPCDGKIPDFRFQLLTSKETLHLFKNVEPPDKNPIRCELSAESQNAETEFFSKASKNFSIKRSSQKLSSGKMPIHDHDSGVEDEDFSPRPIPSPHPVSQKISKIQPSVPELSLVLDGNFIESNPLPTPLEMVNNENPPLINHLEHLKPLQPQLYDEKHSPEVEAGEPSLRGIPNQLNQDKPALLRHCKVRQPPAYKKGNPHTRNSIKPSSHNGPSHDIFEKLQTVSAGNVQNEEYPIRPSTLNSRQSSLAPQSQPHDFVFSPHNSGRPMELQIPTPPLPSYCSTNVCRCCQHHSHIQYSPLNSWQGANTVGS

T4: Flag-STIL-M (a.a. 420-780) (human) (UniProt Q15468)
T4 sequence: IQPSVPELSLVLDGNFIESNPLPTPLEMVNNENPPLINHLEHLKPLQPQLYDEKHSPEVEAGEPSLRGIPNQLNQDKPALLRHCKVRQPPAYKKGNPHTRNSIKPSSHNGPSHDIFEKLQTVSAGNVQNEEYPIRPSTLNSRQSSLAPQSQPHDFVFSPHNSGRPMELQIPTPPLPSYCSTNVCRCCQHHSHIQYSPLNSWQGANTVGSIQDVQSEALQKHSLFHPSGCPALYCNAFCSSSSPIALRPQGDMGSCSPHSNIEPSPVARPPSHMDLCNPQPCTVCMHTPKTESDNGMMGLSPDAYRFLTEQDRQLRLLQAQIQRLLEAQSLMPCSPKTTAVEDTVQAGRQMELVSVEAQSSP

T5: Flag-STIL, full-length wild type (a.a. 1-1288) (human) (UniProt Q15468)
T5 sequence: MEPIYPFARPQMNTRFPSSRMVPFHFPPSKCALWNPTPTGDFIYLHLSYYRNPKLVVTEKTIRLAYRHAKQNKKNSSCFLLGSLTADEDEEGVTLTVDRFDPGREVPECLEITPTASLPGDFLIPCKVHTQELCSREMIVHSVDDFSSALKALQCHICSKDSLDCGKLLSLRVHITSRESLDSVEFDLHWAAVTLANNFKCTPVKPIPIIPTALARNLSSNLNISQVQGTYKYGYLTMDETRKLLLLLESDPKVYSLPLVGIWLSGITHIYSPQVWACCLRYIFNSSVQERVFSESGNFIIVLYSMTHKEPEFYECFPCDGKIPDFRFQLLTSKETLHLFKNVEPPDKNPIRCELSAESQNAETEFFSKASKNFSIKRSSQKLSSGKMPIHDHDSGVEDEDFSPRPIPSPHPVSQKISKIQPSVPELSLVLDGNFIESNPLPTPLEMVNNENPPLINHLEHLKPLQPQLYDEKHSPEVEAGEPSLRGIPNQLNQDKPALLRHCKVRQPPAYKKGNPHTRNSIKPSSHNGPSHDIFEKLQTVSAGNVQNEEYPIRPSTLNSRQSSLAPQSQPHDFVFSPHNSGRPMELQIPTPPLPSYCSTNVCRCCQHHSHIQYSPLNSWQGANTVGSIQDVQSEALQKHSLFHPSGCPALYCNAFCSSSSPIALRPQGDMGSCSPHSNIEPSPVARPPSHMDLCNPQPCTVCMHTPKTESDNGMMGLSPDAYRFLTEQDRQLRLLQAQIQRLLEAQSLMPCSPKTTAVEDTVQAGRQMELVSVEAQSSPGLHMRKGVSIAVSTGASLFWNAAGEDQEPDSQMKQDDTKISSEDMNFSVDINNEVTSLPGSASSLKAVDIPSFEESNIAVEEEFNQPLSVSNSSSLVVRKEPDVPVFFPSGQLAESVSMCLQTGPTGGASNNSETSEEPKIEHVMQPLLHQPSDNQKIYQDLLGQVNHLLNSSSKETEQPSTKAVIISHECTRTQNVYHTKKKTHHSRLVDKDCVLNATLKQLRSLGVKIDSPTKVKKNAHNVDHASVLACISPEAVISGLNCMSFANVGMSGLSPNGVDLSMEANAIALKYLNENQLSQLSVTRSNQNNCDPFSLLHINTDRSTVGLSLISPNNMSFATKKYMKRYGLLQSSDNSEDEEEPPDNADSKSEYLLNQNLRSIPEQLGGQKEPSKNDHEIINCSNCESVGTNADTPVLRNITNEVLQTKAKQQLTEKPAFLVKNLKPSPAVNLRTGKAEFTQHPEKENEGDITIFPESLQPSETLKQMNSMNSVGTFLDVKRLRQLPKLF


Tests used:
HA-FOXM1 [1] = target: T1, HA-FOXM1; experiment: co-IP; HEK293T cells transiently co-transfected with HA-FOXM1 and full-length or truncated GFP-STIL; immunoprecipitation with anti-HA antibody; Western blotting
HA-FOXM1 [2] = target: T1, HA-FOXM1; experiment: co-IP; exogenous GFP-STIL and HA-FOXM1 expressed in HEK293T cells (Additional file 2: Fig. S6f); precipitating antibody not shown
[3] = target: T2, Flag-STIL-C (a.a. 780-1288) (human); experiment: co-IP; HEK293T cells transiently co-transfected with HA-FOXM1 and full-length or truncated Flag-STIL; immunoprecipitation with anti-Flag antibody; Western blotting
[4] = target: T3, Flag-STIL-N (a.a. 1-628) (human); experiment: as above
[5] = target: T4, Flag-STIL-M (a.a. 420-780) (human); experiment: as above
[6] = target: T5, Flag-STIL, full-length wild type (a.a. 1-1288) (human); experiment: as above

binding (HA-FOXM1 [1])	binding (HA-FOXM1 [2])	binding [3]	binding [4]	binding [5]	binding [6]	Binder
binds	binds	–	–	–	–	GFP-STIL, full length (protein, UniProt Q15468-2 1-1288) MEPIYPFARPQMNTRFPSSRMVPFHFPPSKCALWNPTPTGDFIYLHLSYYRNPKLVVTEKTIRLAYRHAKQNKKNSSCFLLGSLTADEDEEGVTLTVDRFDPGREVPECLEITPTASLPGDFLIPCKVHTQELCSREMIVHSVDDFSSALKALQCHICSKDSLDCGKLLSLRVHITSRESLDSVEFDLHWAAVTLANNFKCTPVKPIPIIPTALARNLSSNLNISQVQGTYKYGYLTMDETRKLLLLLESDPKVYSLPLVGIWLSGITHIYSPQVWACCLRYIFNSSVQERVFSESGNFIIVLYSMTHKEPEFYECFPCDGKIPDFRFQLLTSKETLHLFKNVEPPDKNPIRCELSAESQNAETEFFSKASKNFSIKRSSQKLSSGKMPIHDHDSGVEDEDFSPRPIPSPHPVSQKISKIQPSVPELSLVLDGNFIESNPLPTPLEMVNNENPPLINHLEHLKPLQPQLYDEKHSPEVEAGEPSLRGIPNQLNQDKPALLRHCKVRQPPAYKKGNPHTRNSIKPSSHNGPSHDIFEKLQTVSAGNVQNEEYPIRPSTLNSRQSSLAPQSQPHDFVFSPHNSGRPMELQIPTPPLPSYCSTNVCRCCQHHSHIQYSPLNSWQGANTVGSIQDVQSEALQKHSLFHPSGCPALYCNAFCSSSSPIALRPQGDMGSCSPHSNIEPSPVARPPSHMDLCNPQPCTVCMHTPKTESDNGMMGLSPDAYRFLTEQDRQLRLLQAQIQRLLEAQSLMPCSPKTTAVEDTVQAGRQMELVSVEAQSSPGLHMRKGVSIAVSTGASLFWNAAGEDQEPDSQMKQDDTKISSEDMNFSVDINNEVTSLPGSASSLKAVDIPSFEESNIAVEEEFNQPLSVSNSSSLVVRKEPDVPVFFPSGQLAESVSMCLQTGPTGGASNNSETSEEPKIEHVMQPLLHQPSDNQKIYQDLLGQVNHLLNSSSKETEQPSTKAVIISHECTRTQNVYHTKKKTHHSRLVDKDCVLNATLKQLRSLGVKIDSPTKVKKNAHNVDHASVLACISPEAVISGLNCMSFANVGMSGLSPNGVDLSMEANAIALKYLNENQLSQLSVTRSNQNNCDPFSLLHINTDRSTVGLSLISPNNMSFATKKYMKRYGLLQSSDNSEDEEEPPDNADSKSEYLLNQNLRSIPEQLGGQKEPSKNDHEIINCSNCESVGTNADTPVLRNITNEVLQTKAKQQLTEKPAFLVKNLKPSPAVNLRTGKAEFTQHPEKENEGDITIFPESLQPSETLKQMNSMNSVGTFLDVKRLRQLPKLF
–	–	no binding	no binding	binds	binds	HA-FOXM1 (protein, UniProt Q08050 1-763) MKTSPRRPLILKRRRLPLPVQNAPSETSEEEPKRSPAQQESNQAEASKEVAESNSCKFPAGIKIINHPTMPNTQVVAIPNNANIHSIITALTAKGKESGSSGPNKFILISCGGAPTQPPGLRPQTQTSYDAKRTEVTLETLGPKPAARDVNLPRPPGALCEQKRETCADGEAAGCTINNSLSNIQWLRKMSSDGLGSRSIKQEMEEKENCHLEQRQVKVEEPSRPSASWQNSVSERPPYSYMAMIQFAINSTERKRMTLKDIYTWIEDHFPYFKHIAKPGWKNSIRHNLSLHDMFVRETSANGKVSFWTIHPSANRYLTLDQVFKPLDPGSPQLPEHLESQQKRPNPELRRNMTIKTELPLGARRKMKPLLPRVSSYLVPIQFPVNQSLVLQPSVKVPLPLAASLMSSELARHSKRVRIAPKVLLAEEGIAPLSSAGPGKEEKLLFGEGFSPLLPVQTIKEEEIQPGEEMPHLARPIKVESPPLEEWPSPAPSFKEESSHSWEDSSQSPTPRPKKSYSGLRSPTRCVSEMLVIQHRERRERSRSRRKQHLLPPCVDEPELLFSEGPSTSRWAAELPFPADSSDPASQLSYSQEVGGPFKTPIKETLPISSTPSKSVLPRTPESWRLTPPAKVGGLDFSPVQTSQGASDPLPDPLGLMDLSTTPLQSAPPLESPQRLLSSEPLDLISVPFGNSSPSDIDVPKPGSPEPQVSGLAANRSLTEGLVLDTMNDSLSKILLDISFPGLDEDPLGPDNINWSQFIPELQ
